These are yes or no findings as the source states them, for the method shown. For some assays here: Binding seen in cells or lysates may run through a third protein. Some entries that bind do so weakly or less than the wild type.

Amino acid sequences for entries named in this document (tags omitted). A change or cut given only in a name is not applied to a line headed by its entry.
UniProt Q01650: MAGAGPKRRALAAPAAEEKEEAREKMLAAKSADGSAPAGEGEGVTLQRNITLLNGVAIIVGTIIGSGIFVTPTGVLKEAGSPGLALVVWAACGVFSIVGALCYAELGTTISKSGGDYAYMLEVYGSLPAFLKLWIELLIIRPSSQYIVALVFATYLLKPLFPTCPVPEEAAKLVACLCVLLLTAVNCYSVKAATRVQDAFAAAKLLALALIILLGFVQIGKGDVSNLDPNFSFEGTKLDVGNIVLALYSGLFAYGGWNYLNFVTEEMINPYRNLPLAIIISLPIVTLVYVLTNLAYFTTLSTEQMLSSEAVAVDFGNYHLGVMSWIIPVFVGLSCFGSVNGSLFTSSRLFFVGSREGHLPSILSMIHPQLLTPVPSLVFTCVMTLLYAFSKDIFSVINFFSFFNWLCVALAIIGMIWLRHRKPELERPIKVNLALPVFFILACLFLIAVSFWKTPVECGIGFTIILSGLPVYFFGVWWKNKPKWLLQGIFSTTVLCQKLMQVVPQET
UniProt P08195: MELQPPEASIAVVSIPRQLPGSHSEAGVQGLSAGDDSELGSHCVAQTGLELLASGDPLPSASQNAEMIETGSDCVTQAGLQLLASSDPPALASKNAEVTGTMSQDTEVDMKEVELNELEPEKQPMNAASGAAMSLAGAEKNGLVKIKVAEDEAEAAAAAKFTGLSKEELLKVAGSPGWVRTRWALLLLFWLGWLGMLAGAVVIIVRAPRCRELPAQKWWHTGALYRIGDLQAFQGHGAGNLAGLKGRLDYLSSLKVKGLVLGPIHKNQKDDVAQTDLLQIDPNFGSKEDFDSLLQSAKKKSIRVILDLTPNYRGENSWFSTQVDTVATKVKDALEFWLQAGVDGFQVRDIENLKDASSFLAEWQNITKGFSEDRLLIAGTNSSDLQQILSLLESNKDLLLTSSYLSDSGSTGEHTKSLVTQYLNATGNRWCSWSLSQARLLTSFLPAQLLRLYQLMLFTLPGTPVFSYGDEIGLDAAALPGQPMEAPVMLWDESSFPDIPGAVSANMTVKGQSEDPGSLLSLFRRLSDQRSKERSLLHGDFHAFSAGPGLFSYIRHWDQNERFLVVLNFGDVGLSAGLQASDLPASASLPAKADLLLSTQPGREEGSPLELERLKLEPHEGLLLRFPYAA

Assay [1] addresses endogenous LAT1-4F2hc heterodimer on the HeLa cell surface (human (endogenous in HeLa)) (UniProt Q01650+P08195). Briefly: cross-linking; HeLa cells incubated with BS3 to crosslink cell surface complexes; Western blot with anti-LAT1 antibody. On the technique in general: A western blot detects proteins with antibodies after separation by electrophoresis.
The target of assay [2] is endogenous LAT1 (SLC7A5) (human (endogenous in HeLa, HepG2, A431)) (UniProt Q01650). Briefly: non-reducing gel electrophoresis with Western blot; endogenous proteins of HeLa, HepG2 and A431 cells and of the lysosomal fraction of HeLa cells (without and with IFN-γ) separated without reducing the disulfide bond.

“endogenous LAT1-4F2hc heterodimer on the HeLa cell surface (from UniProt Q01650 1-507; P08195-1 1-630) (complex)”: in assay [1], the binding entry is reported as “binds”.

Consider “endogenous 4F2hc (SLC3A2) (from UniProt P08195-1 1-630)”, for which the binding entry in assay [2] was “binds”.
